# Data taken from publication PMC9971101, “Comparison of Five Near-Infrared Fluorescent Folate Conjugates in an Ovarian Cancer Model” (Molecular Imaging and Biology, 2021).
# Test system: Skov-3 subcutaneous xenografts
# Experiment: In vivo biodistribution and optimal time point FLI in subcutaneous Skov-3 xenograft model (IVIS Spectrum)
# Set-up: species or system NOD-scid IL2Rg^null mice
# Conditions: iv injection, Skov-3 subcutaneous xenograft, n = 3 per conjugate, imaged 0.5 to 48 h
# Description: All applicable institutional and/or national guidelines for the care and use of animals were followed. All experiments were approved by The Norwegian Animal Research Authority and conducted according to The European Convention for the Protection of Vertebrates Used for Scientific Purposes (Application ID 14128). NOD-scid IL2Rg^null mice (referred to as NSG) were housed in groups of ≤ 5 in individually ventilated cages changed twice per month and kept in a 12-h […] schedule at 21 °C at the Vivarium, University of Bergen. Observations for general condition and body weights were recorded twice per week and, when indicated, the animals were euthanised according to institutional guidelines. Skov-3 and A549 subcutaneous xenografts were established through bi-lateral flank injections of 5 × 10^6 cells, resuspended in 100 μL PBS containing 16.7% Matrigel (Corning Inc., MA, USA). Tumour volumes were measured weekly with a digital calliper and calculated using the ellipsoid volume formula: Volume = π (length × width × height)/6.
# For biodistribution assessment of conjugates 1–5, mice were intravenously (iv) injected with 100 μL of a 10-μM conjugate solution when mean tumour volumes reached ≈150 mm^3, corresponding to a dose of […]. The dose was chosen on the basis of preclinical mouse models previously performed using folate-NIR (OTL38) FLI [28]. To determine the timepoint for the optimal TBR, optical imaging was performed at 0 h, 0.5 h, 1 h, 2 h, 4 h, 6 h, 8 h, 24 h and 48 h using the IVIS Spectrum. Fluorescence signals were analysed with the Living Imaging® software v4.5 (PerkinElmer Inc.) and expressed as average radiance (p/s/cm^2/sr). Regions of interest (ROI) were manually drawn around the subcutaneous tumours in the flanks and the adjacent tissue to calculate TBRs at all time points. Next, subcutaneous xenograft models were imaged at the pre-determined optimal time points, which were 4 h for conjugates 1, 2 and 3 and 24 h for conjugates 4 and 5.
row,SMILES,optimal time point for achieving the best TBR [h]
1,"CC1(C)C(/C=C/C2=C(Oc3ccc(CCC(=O)NCCNC(=O)CC[C@H](NC(=O)c4ccc(NCc5cnc6nc(N)[nH]c(=O)c6n5)cc4)C(=O)O)cc3)C(=C/C=C3/N(CCC[N+](C)(C)C)c4ccc(S(=O)(=O)O)cc4C3(C)C)/CCC2)=[N+](CCC[N+](C)(C)C)c2ccc(S(=O)(=O)O)cc21 [Conjugate 1, 2-((E)-2-((E)-2-(4-(3-((2-((S)-4-(4-(((2-amino-4-oxo-3,4-dihydropteridin-6-yl)methyl)amino)benzamido)-4-carboxybutanamido)ethyl)amino)-3-oxopropyl)phenoxy)-3-(2-((E)-3,3-dimethyl-5-sulfonato-1-(3-(trimethylammonio)propyl)indolin-2-ylidene)ethylidene)cyclohex-1-en-1-yl)vinyl)-3,3-dimethyl-1-(3-(trimethylammonio)propyl)-3H-indol-1-ium-5-sulfonate]",8
2,"CC1(C)C(/C=C/C2=C(c3ccc(CCC(=O)NCCNC(=O)CC[C@H](NC(=O)c4ccc(NCc5cnc6nc(N)[nH]c(=O)c6n5)cc4)C(=O)O)cc3)C(=C/C=C3/N(CCC[N+](C)(C)C)c4ccc(S(=O)(=O)O)cc4C3(C)C)/CCC2)=[N+](CCC[N+](C)(C)C)c2ccc(S(=O)(=O)O)cc21 [Conjugate 2, 2-((E)-2-((E)-4'-(3-((2-((S)-4-(4-(((2-amino-4-oxo-3,4-dihydropteridin-6-yl)methyl)amino)benzamido)-4-carboxybutanamido)ethyl)amino)-3-oxopropyl)-6-(2-((E)-3,3-dimethyl-5-sulfonato-1-(3-(trimethylammonio)propyl)indolin-2-ylidene)ethylidene)-3,4,5,6-tetrahydro-[1,1'-biphenyl]-2-yl)vinyl)-3,3-dimethyl-1-(3-(trimethylammonio)propyl)-3H-indol-1-ium-5-sulfonate]",8
3,"CC1(C)C(/C=C/C2=C(Oc3ccc(S(=O)(=O)O)cc3)C(=C/C=C3/N(CCCCS(=O)(=O)O)c4ccc(S(=O)(=O)[O-])cc4C3(C)C)/CCC2)=[N+](CCCCCC(=O)NCCNC(=O)CC[C@H](NC(=O)c2ccc(NCc3cnc4nc(N)[nH]c(=O)c4n3)cc2)C(=O)O)c2ccc(S(=O)(=O)O)cc21 [Conjugate 3, 1-(6-((2-((S)-4-(4-(((2-amino-4-oxo-3,4-dihydropteridin-6-yl)methyl)amino)benzamido)-4-carboxybutanamido)ethyl)amino)-6-oxohexyl)-2-((E)-2-((E)-3-(2-((E)-3,3-dimethyl-5-sulfonato-1-(4-sulfonatobutyl)indolin-2-ylidene)ethylidene)-2-(4-sulfonatophenoxy)cyclohex-1-en-1-yl)vinyl)-3,3-dimethyl-3H-indol-1-ium-5-sulfonate]",8
4,"CC1(C)C(/C=C/C=C/C=C/C=C2\N(CCCCCC(=O)NCCNC(=O)CC[C@H](NC(=O)c3ccc(NCc4cnc5nc(N)[nH]c(=O)c5n4)cc3)C(=O)O)c3ccc4ccccc4c3C2(C)C)=[N+](CCCCS(=O)(=O)[O-])c2ccc3ccccc3c21 [Conjugate 4, 4-(2-((1E,3E,5E,7Z)-7-(3-(6-((2-((S)-4-(4-(((2-amino-4-oxo-3,4-dihydropteridin-6-yl)methyl)amino)benzamido)-4-carboxybutanamido)ethyl)amino)-6-oxohexyl)-1,1-dimethyl-1,3-dihydro-2H-benzo[e]indol-2-ylidene)hepta-1,3,5-trien-1-yl)-1,1-dimethyl-1H-benzo[e]indol-3-ium-3-yl)butane-1-sulfonate]",0.5
5,"C[N+]1=C(/C=C/C2=C(Cl)C(=C/C=C3/N(CCCCCC(=O)NCCNC(=O)CC[C@H](NC(=O)c4ccc(NCc5cnc6nc(N)[nH]c(=O)c6n5)cc4)C(=O)O)c4ccccc4C3(C)C)/CCC2)C(C)(C)c2ccccc21 [Conjugate 5, 2-((E)-2-((E)-3-(2-((E)-1-(6-((2-((S)-4-(4-(((2-amino-4-oxo-3,4-dihydropteridin-6-yl)methyl)amino)benzamido)-4-carboxybutanamido)ethyl)amino)-6-oxohexyl)-3,3-dimethylindolin-2-ylidene)ethylidene)-2-chlorocyclohex-1-en-1-yl)vinyl)-1,3,3-trimethyl-3H-indol-1-ium]",24
